Hit rate of the full screen: of about 31,000 sequences, about 1,400 (4.5%) were called active.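 Rule for the calls: active = median seed-adjusted z-score above 1 or below -1; inactive = the rest.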 Some of the results follow.
Test: Novel Modifiers of Survival Motor Neuron (SMN) Protein: Gene Identification via Genome-wide siRNA Screen;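 note: luminescence tracks full-length SMN protein made from the SMN2 reporter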
Conditions: HEK293T SMN2-luciferase reporter, siRNA knockdown, 72 h; actives lie on both sides
How it was run: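 HEK293T cells stably expressing an SMN2 splicing/cDNA-luciferase reporter were reverse-transfected with a druggable-genome siRNA library and read by luminescence at 72 hours; hits defined by MAD score above 1.0 or below -1.0.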

Sequence	median seed-adjusted z-score
CCCUAGAUUGUCUUACAUUTT against LRRN3	inactive: 0
GAACCAAGCUUGGAUCAGATT against ACAA2	inactive: 0.435
CCUUAUUGGAAAGAUCCAATT against TXNDC17	inactive: 0.245
CAAUGUCUUCUCCAACUUUTT against MYL5	inactive: 0.097
GGACACCAAGAAUUACUUUTT against LSS	inactive: -0.302
CGACAAGUCUGACAGGGAUTT against PQBP1	active: -1.12
CCACUGACACCAUACGUAATT against PLCB4	inactive: -0.521
CGUGCCCAAUUAUCAGAGATT against CARD10	inactive: -0.929
CUUGGAUACAGAUACGUUUTT against TLK1	inactive: -0.0133
GGAUUCCACCUACCCUAUUTT against STT3A	inactive: 0
CGUUAUCUUCAUCACCUAUTT against ABCC10	active: -1.56
CUACCGAGUUGUUAUAAGATT against ZNF300	inactive: -0.302
CCAUGAUCCUGAUAGGCAATT against PLAT	inactive: 0.246
CGCGAUCAGUACGACUUUATT against EHHADH	inactive: 0.0626
GGUCGACAGUUUUCACAGATT against PPFIA1	inactive: 0.312
GCAGCUACAAAAACAGCUATT against MED4	inactive: -0.632
GGAUGAUGUGAGGCAUAAATT against GPR107	inactive: 0
CACCGGCACUUUACAGAGATT against MAPKAPK5	inactive: 0.489
UGCUCUGACCGGAAGAGAATT against NRGN	inactive: -0.381
CGACUACUCCGAGAUGAGATT against DLG5	inactive: 0.467
CAAUUGGGUGCGUAACUUUTT against GBA	inactive: -0.492
GCUUUGACCAGUGCGAUUATT against VCAN	inactive: 0.0927

Sequence	median seed-adjusted z-score
GCACUUUAGAAACCGCUUUTT against HOXB13	inactive: -0.136
GAAACUUCCUAAGUCGAAATT against FAM57A	inactive: 0.0434
GGUCUUAACUUGCACCAGATT against ZNF230	inactive: -0.203
CCACUUACCCUCAAAGAAATT against SLC4A5	active: 1.3
CCCGAUUAUUUUCGACCUATT against PHKB	inactive: -0.142
GAAACUACACUGUGCAGUUTT against RBP5	inactive: -0.748
GGAAAAGGCUGUCUACAUUTT against CYSLTR1	inactive: 0.364
GGUCGGUAUGGGUCAGAAATT against ACTA1	inactive: -0.103
CAAAAAGGGUGGACAAGUUTT against CSGALNACT1	inactive: -0.235
GGCUGAUCAGUGUUCUAGATT against IDI1	inactive: -0.0118
GGCAAGAUCUCAACCGGCATT against TRPV6	inactive: -0.511
GCCUACAGCCUGUCAGAGATT against DNAJB2	inactive: 0
ACAAGAUCGUGAAGCAGAATT against PPP5C	inactive: 0.473
GGUUAAAGGUUAUGGUCCATT against PROSC	inactive: 0.173
GAAAUACACCAGUUGGUAUTT against FGF2	inactive: 0.0208
GCGAUUGUCUGCUUACAGATT against AHCTF1	inactive: -0.501
GCCUUCCACGCUUUCCUGATT against RGS16	inactive: 0
GAAUAUUCCUUACUAAUCATT against QSOX2	inactive: 0.498
GUCUUUACUCUUCAACUGATT against THBS4	inactive: -0.28
GGAAACUUGUAACCGAUCATT against ACP1	inactive: -0.277
CAAUUGUUCCUCAUCCUUATT against ZNF555	inactive: 0.141
GCACUAUCGCAUCGACAAATT against SYK	inactive: 0.567

Some of the entries above, reformatted:
GUCUUUACUCUUCAACUGATT against THBS4
  median seed-adjusted z-score: inactive: -0.28
GGAAACUUGUAACCGAUCATT against ACP1
  median seed-adjusted z-score: inactive: -0.277

The list continues:

Sequence	median seed-adjusted z-score
GUGGAAUGCCUAGAACUGATT against GCNT2	inactive: -0.0107
GUCCAAGAAUAGAGAGAUATT against SGCE	inactive: 0.202
GGACUGUACAACACUCUGATT against TGFB3	inactive: -0.354
GGUUCUAACUUCGAAAAAUTT against DNAJC8	active: -1.62
GGAGGACGGCUUCUACGAATT against KCNJ9	inactive: -0.0832
GCUUUCUGUUCUUCGGUAATT against SLC26A8	inactive: -0.145
GUGUUCCGCUAUAUCCUCATT against KCTD21	inactive: 0.0236
GCAACGGCGGGAUUACAAATT against SUOX	inactive: -0.0649
GGUUCACUGGAACACCAAATT against CA2	inactive: 0.328
GCUACAAUGGGUCCACUAATT against CYFIP2	inactive: -0.322
CGACAAUGCGCCUUACUUUTT against PCDHGA12	inactive: 0.561
GACUACCAGUUGAUCAUGUTT against TTBK1	inactive: 0.00054
GGAAGGAACCAUCCAGUAATT against POLR2L	active: -1.19
GGUACAUCACGGAAAGGAATT against LCTL	inactive: -0.0821
AAAUGCAACCCAAAAAGUATT against CCT7	inactive: -0.246
CCACAGUUACCUCAGCAAATT against RASSF3	inactive: -0.323
CCUAUCCCUUUAUCACGUATT against CHRNB3	inactive: -0.0155
GGCAAAAACUGUGAAUUAUTT against F10	inactive: -0.0033
GGAAAGAGCUGGUGAUGAATT against CLEC4F	inactive: 0.347
CCGGGUUUAUGAUAUUCCATT against CYBB	inactive: 0.0487
GCCUACUCAUCUGCCAAGATT against DUPD1	inactive: -0.406
CCAAGUAAUCCAUAACGCATT against ZNF528	inactive: -0.0746

Sequence	median seed-adjusted z-score
GGUAGUGCUUAUACCUAUATT against SLC15A1	inactive: -0.693
GAAAUGAGAAGAUACAAUATT against WBSCR17	inactive: 0
CUGUUGCAAUUGGACAUUUTT against AQP4	inactive: -0.361
GCCGCUAGCUUUUCAGACATT against GPR124	inactive: 0.00658
GGCUUAAUGUGGUGAUGUUTT against COL7A1	active: 1.08
GAAAACGACUUCUAAGUUATT against TMTC3	inactive: 0.266
GGAGAUGCACAACAUCUUATT against PIP4K2B	inactive: 0.17
UUGAUAAGGUUAAACCACATT against CSTA	inactive: -0.351
CCCUCGUUGAGAUCAAAGATT against KIF21B	inactive: 0.934
GCAAAUUCACAGGCAAUUUTT against DHCR7	inactive: 0.00451
GAAUCAUCCUAAUAUAGGUTT against MARK1	inactive: 0.341
GGGCGAUCCUGCUUCCAAATT against GRN	inactive: -0.767
GCGGCAAUCUUGGGAGUAATT against TMPRSS11B	inactive: -0.545
AACUGGUGCUGGUCAAUUATT against ERF	inactive: -0.0288
GUCCUCAAGUGUGUGGUCATT against BOK	inactive: 0
AGUCAGUGUUCGUCAUCCATT against ZNF446	inactive: 0.0496
CUAUGGUACUUGCUGGACUTT against PAEP	inactive: -0.0632
GUGUCGAGUUAGCUACAAATT against KIFAP3	inactive: 0.403
GCCUUGUUCCUGAGAGUGATT against CD247	inactive: -0.522
CAACAGGCCUUAUUCCACUTT against SOD2	inactive: -0.558
GAGAGACCCUCGUCCUUUATT against CYP20A1	inactive: -0.796
GGUCACCUGUAUUCGCUGUTT against ZNRD1	inactive: -0.133

Sequence	median seed-adjusted z-score
GGUAUUACUCACAAACAAATT against IL1RL1	inactive: -0.286
GGGAUCCGAUAACCAAGAATT against POLR3F	inactive: 0
CCUGUGCAUCUAUCACAAATT against ZNRF1	inactive: -0.808
UCAUCUCGUUGGACCGUUATT against GPR135	inactive: 0.546
GGAAAUCUGAGCUUACUGATT against ZNF649	inactive: 0.259
AGCACAUCCUCUUCGUCAATT against GPX5	inactive: 0.0205
GGAUGGGAUUCGCAACUAATT against SPTLC3	inactive: 0.279
CAGUGUCCGUGGUUGCUAATT against ACR	inactive: -0.655
CCCAAUAUGUGCGGAUUAATT against DSC3	inactive: 0.18
CCCUCAUGCUCUCAUACAATT against CPN2	inactive: 0.0491
CGGAAUUCUUCGUUACUCATT against ZNF813	inactive: 0.127
CGAAAGUAUCUGGAGCUAATT against PAN2	inactive: -0.139
ACGGCAAAGUGUUUUGUGATT against LIMD1	inactive: 0.587
GGAGUUCUUUGAUGAGAAATT against PPP2R1A	inactive: 0.973
GAUACACUCCCUAUACUAUTT against NXF3	inactive: 0.672
GAGUUGUCUUCAAACUUAUTT against SMYD3	inactive: 0.1
GGGAUUAACAUUUACUGCATT against ZRANB3	inactive: 0.0516
GGACGCAGGUUUCUGUUUATT against CHRFAM7A	inactive: 0.115
GAGACUCCAUUGCCGAAAATT against ZNF223	inactive: 0.367

A stretch from the list above:
Sequence	median seed-adjusted z-score
CAGUGUCCGUGGUUGCUAATT against ACR	inactive: -0.655
CCCAAUAUGUGCGGAUUAATT against DSC3	inactive: 0.18
CCCUCAUGCUCUCAUACAATT against CPN2	inactive: 0.0491
CGGAAUUCUUCGUUACUCATT against ZNF813	inactive: 0.127
CGAAAGUAUCUGGAGCUAATT against PAN2	inactive: -0.139

Reference: PubChem BioAssay AID1347426 (Functional Genomics Laboratory (NCATS/FGL), 2020)
